Experimental data published in patent US6380168B1, “Method for promoting hair growth” (Nomura Co., Ltd., priority 1992, dated 2002).
“And” between values parts separate entries of the source, which are not always exact repeats. Identical values can stand only once.

Tested on: tyrosinase
Assay: Tyrosinase inhibition (L-Dopa, dopachrome absorbance at 475 nm, procedure of Manson and Peterson)
Format: biochemical, mushroom
Experimental: This experiment was conducted according to the procedure of Manson and Peterson. A 0.5 ml L-Dopa solution (0.03% in pH6.8 PBS) was added to 0.5 ml of a test liquid, and incubated for 5 minutes at 25° C. After which, a 0.5 ml of tyrosinase solution (obtained from a mushroom) was added and the mixture was further incubated for 5 minutes at 25° C. […] Kojic acid was used for a positive control test.

Compound: OCC1O[C@@H](OCC2O[C@@H](Oc3c[nH]c4ccccc34)C(O)C(O)[C@@H]2O)C(O)C(O)[C@@H]1O (stereo partly drawn) [Calanthoside A, 3-O-β-D-glucopyranosyl (1-6)-β-D-glucopyranosylindole]
- Absorbance (× 1,000) (D1-D2) (concentration 50 μg/ml): 454.0 ± 0.0 × 1,000
- Absorbance (× 1,000) (D1-D2) (concentration 200 μg/ml): 252.0 ± 0.0 × 1,000

Compound: O=c1cc(CO)occ1O [Kojic Acid, Kojic acid]
- Absorbance (× 1,000) (D1-D2) (concentration 5 (μM)): 478.0 ± 3.1 × 1,000 and 526.0 ± 2.6 × 1,000 and 562.8 ± 2.0 × 1,000
- Absorbance (× 1,000) (D1-D2) (concentration 20 (μM)): 240.7 ± 3.5 × 1,000 and 276.8 ± 1.9 × 1,000 and 301.5 ± 1.5 × 1,000
- Absorbance (× 1,000) (D1-D2) (concentration 50 (μM)): 122.8 ± 1.7 × 1,000 and 144.3 ± 2.0 × 1,000 and 158.7 ± 1.2 × 1,000
